# Library screen at single concentrations

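Whole-parasite assay of Trypanosoma brucei over 72 hours; the read-out is not stated. Compounds at 30 µM. Higher reads as stronger inhibition (inferred: compounds with an IC50 in retests scored well above the rest). Values scatter widely below zero; nearly all retest evidence comes from the higher of the two concentrations used. Size under these conditions: about 64,000 compounds, about 940 of them at 50% or above in at least one test.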

Values are the deposited “Percent Effect”, in %.
How 0% and 100% were set is not recorded. Most values in the screen are low, and negative values occur.
The compounds are a random part of those screened.

SMILES,Percent Effect
CCCc1n[nH]c(C2CN(C(=O)C3=COCCC3)CCO2)n1 (stereo not shown),-3.106%
CCS(=O)(=O)NCC(=O)N(C1CC1)C1Cc2ccccc2C1,-5.439%
COc1ccccc1-n1nc(CC(C)C)nc1Cc1nnc(N)s1,-23.33%
CSc1cccc(NC(C)C(=O)Nc2nccs2)c1 (stereo not shown),-39.91%
Cc1nn(C)c2ncnc(NCc3nncn3C3CCCCC3)c12,-111.3%
COCCn1nc(C(=O)N(C)Cc2cnn(C)c2)ccc1=O,-2.363%
COc1ccc(CN(C)Cc2c(C)noc2C)c(Cl)c1OC,-35.57%
CC(C)(C(=O)NCc1ccccc1F)n1cc(Br)cn1,-13.15%
[H][C@@]12CS(=O)(=O)C[C@]1([H])N(Cc1ccsc1)CCN2C(=O)C1CCC1,-37.52%
COc1ccccc1C(C)(C)NC(=O)NCCC(=O)NC1CCCC1,-8.664%
Cc1cc(C)nc(N2CCC(CNC(=O)c3ccccn3)CC2)n1,2.845%
Cc1ccsc1CN(c1nc(CCN)nc2ccccc12)C1CC1,-28%
O=C(O)C(F)(F)F.[H][C@@]12COC[C@]1(COCc1cccnc1)CN(C(=O)c1ccccc1C)C2,-59.89%
O=C(Nc1nnc(N2CCCCC2)[nH]1)c1cccs1,-7.159%
Cc1ccc(OCCC(=O)NC2CC(=O)N(C)C2)cc1C (stereo not shown),-48.25%
CN(C(=O)OC(C)(C)C)C1CCN(C(=O)c2ccc(Cl)o2)C1 (stereo not shown),12.96%
Cn1cnc2nc3n(c2c1=O)CCC3,-21.15%
CCN1C(=O)CC(c2cnn(C)c2)C12CCN(C(=O)c1ccoc1)CC2 (stereo not shown),-24.22%
Cc1ccc(N2CC[C@@H](NC(=O)c3cnccn3)[C@H](O)C2)nn1,-8.957%
Cn1cc(C(O)CNC(=O)c2cc(Br)ccc2Cl)cn1 (stereo not shown),-11.1%
CC(C)COc1cncc(N2CCCN(CC(F)(F)F)CC2)n1,-48.74%
c1ncc(-c2cn(CCSc3cnn[nH]3)nn2)cn1,-73.15%
CCCc1noc(CN2CCN(CCC(C)C)CC2)n1,-16.28%
[H][C@]12CC[C@]([H])(C1)N(C(=O)c1cccnc1-c1ccc(OC)nc1)C2,-5.041%
COc1ccccc1C(O)Cn1cc(C(=O)NCc2ccco2)nn1 (stereo not shown),13.54%
COc1ccc2c(c1)CC(NCCCn1cc(C)cn1)CC2 (stereo not shown),-196.1%
CC(C)C1CN(Cc2c[nH]cn2)CCCN1CC1CC1 (stereo not shown),-30.07%
[H][C@]12CC[C@]([H])(CN(Cc3cccnc3)C1)N(C(=O)CSc1nncn1C)C2,8.701%
CCC1COCCN1C(=O)CNC(=O)c1ccsc1 (stereo not shown),-20.39%
CC(=O)N1Cc2ccnn2CC(C(=O)NCc2cccnc2)C1.O=C(O)C(F)(F)F (stereo not shown),-74.13%
Cc1nn(C)c(C)c1C(=O)N1CCOCC1CC(=O)c1ccco1 (stereo not shown),10.52%
CCO[C@H]1CN(C)C[C@@H]1NC(=O)c1c[nH]nc1C1CCCCC1,-16.99%
COc1c(C(=O)NCC(C)C)nnn1Cc1ccccc1,1.262%
Cc1ccc(C(=O)Nc2ccc(N(C)C)nc2)n1C,-31.19%
Cc1nsc(NC2CC(=O)N(C(C)(C)C)C2)n1 (stereo not shown),-5.541%
Cc1ccc(C)c(CS(=O)(=O)CC(=O)Nc2ccc(F)cc2F)c1,17.81%
[H][C@@]12CN(CC3CCOC3)C[C@]1([H])OCCN2c1ncc(F)cn1 (stereo partly shown),-42.44%
Fc1ccc(N2CCN(CCCc3cn[nH]c3)CC2)cc1,-24.69%
CCNC(=O)N(C)C(c1cccc(F)c1)c1ccccn1 (stereo not shown),24.15%
CCn1ncc(CN(C)C(=O)c2ccn(C)n2)c1C,-42.67%
CNC(=O)C1(CCCc2ccncc2)CCCN1 (stereo not shown),-2.255%
CCC(=O)N1CCc2[nH]cnc2C12CCN(C(=O)CCS(C)(=O)=O)CC2,-7.779%
Cc1cc(=O)[nH]c(NCCNC(=O)C(c2ccc(F)cc2)N(C)C)n1 (stereo not shown),-22.87%
CCc1ccsc1CNC(=O)CNC(=O)C(C)(C)C,-110%
O=C(O)C(F)(F)F.[H][C@@]12COC[C@]1(COCC1CCOCC1)CN(C1CCC1)C2,-71.78%
Cc1csc(CCNc2ccc(C#N)cn2)n1,-13.09%
[H][C@@]12C[C@H](C(=O)N(C)C)[C@@]([H])(CN(S(=O)(=O)Cc3ccccc3)C1)O2,24.58%
CSCCC1c2nc[nH]c2CCN1Cc1cncn1C (stereo not shown),-7.14%
[H][C@@]12CN(Cc3ccccc3)C[C@]1([H])OCC(=O)N2CC(N)=O,-9.463%
NC(=O)C1(CCCc2ccccn2)CCCN(CCO)C1 (stereo not shown),-5.209%
COCCN1CCN(S(C)(=O)=O)Cc2cccnc21,-46.69%
CN(Cc1ncnn1C)C(=O)c1ccccc1NCc1ccccc1,0.9255%
CCC1C(=O)NCCN1c1cc(C)ncn1 (stereo not shown),-23.51%
Cc1ccc(-c2nnc(CN3CCc4nn(C)c(=O)cc4C3)o2)cc1,-20.72%
O=C(Nc1cccnc1)N1CCC(n2ccc(C(F)(F)F)n2)CC1,-67.31%
Cc1cc(N2CCCC2c2nnc3n2CCCCC3)nc(N)n1 (stereo not shown),-13.49%
CSCC(=O)N1CCC2(CC1)c1ccccc1CC2O (stereo not shown),-12.1%
COCCN1CCC(C(=O)c2cc(F)ccc2F)CC1,-11.46%
Cl.Cn1ncc2c1CCCC2NCc1cc(Br)cs1 (stereo not shown),2.359%
O=C(O)c1cccc(N2C[C@H](NC(=O)C3CCOCC3)[C@@H](C3CC3)C2)n1,-19.25%
CCCc1cc(N2CCCC2Cn2nc(C)nc2C)n2ncnc2n1 (stereo not shown),-15.14%
Cn1ccc(NC2CCN(C3CC3)C2=O)n1 (stereo not shown),-13.95%
Cc1nc(C)n(CC2CCCCN2Cc2cnc(C)s2)n1 (stereo not shown),3.186%
COc1ncc(NS(=O)(=O)c2ccc(OC)c(C)c2)c(OC)n1,-23.88%
COCC(=O)N1CCC2(COCc3cnc(-c4ccccc4)nc32)C1 (stereo not shown),-45.02%
COc1ncccc1CNC(=O)c1ccco1,-2.022%
O=C(c1coc2ccccc12)N1CCCC1,-23.9%
Cn1cccc1C(=O)N1CCC2(CC1)c1nc[nH]c1CCN2S(C)(=O)=O,-40.72%
Cc1nc(N2CCOCC2)nc(C)c1NC(=O)COc1ccccc1,13.7%
COCC(C)N(C)C(=O)c1ccc2nncn2c1 (stereo not shown),-71.57%
O=C(O)C(F)(F)F.[H][C@]12C[C@@H](Cn3cncn3)N(c3nccs3)[C@@]1([H])CCN(C(C)=O)C2,-69.67%
CCN1CCN(S(=O)(=O)c2c[nH]c(C(C)C)n2)c2ccccc21,-33.88%
c1ccc2c(c1)CC(CNCc1ccncc1)(N1CCCCC1)C2,-14.44%
CCOC(=O)N1CCN(c2nc(N)c3ccccc3n2)CC1.Cl,4.021%
Cc1ccc(C(=O)N2CCC3(CCCN(c4ccc(C)nn4)C3)C2)cn1 (stereo not shown),-36.12%
CC(O)C1CCN(Cc2cnc3c(-c4ccccc4)cnn3c2)CC1 (stereo not shown),-108.2%
O=C(O)c1nc(SCc2ccccc2)ncc1Br,-19.12%
Cc1cccnc1CNc1cc(N2CCCC2CO)ncn1 (stereo not shown),21.8%
Cc1ncncc1C(=O)Nc1cnn(CC(=O)NC2CCCC2)c1,7.238%
CCCOc1ccc(C(=O)Oc2cc(=O)n3cccc(C)c3n2)cc1,-19.42%
CCC(=O)N1CCC2(C=C(C(=O)N(C)C)c3ccccc32)CC1,-15.97%
Cc1noc(C)c1CC(=O)N1CCCC(n2ccnc2C)C1 (stereo not shown),-43.08%

The last 6 entries again:

Result for O=C(O)c1nc(SCc2ccccc2)ncc1Br was -19.12%.
Result for Cc1cccnc1CNc1cc(N2CCCC2CO)ncn1 (stereo not shown) was 21.8%.
Result for Cc1ncncc1C(=O)Nc1cnn(CC(=O)NC2CCCC2)c1 was 7.238%.
Result for CCCOc1ccc(C(=O)Oc2cc(=O)n3cccc(C)c3n2)cc1 was -19.42%.
Result for CCC(=O)N1CCC2(C=C(C(=O)N(C)C)c3ccccc32)CC1 was -15.97%.
Result for Cc1noc(C)c1CC(=O)N1CCCC(n2ccnc2C)C1 (stereo not shown) was -43.08%.

Measurements from “University of Dundee, Small-Polar-MMV Screening Library” (2021), ChEMBL document CHEMBL3988442.